PubChem BioAssay AID652259 – Drosophila RNAi Screening Center | 2013
In all, the deposit lists about 22,000 reagents; this is an unselected part of those with a known target gene and a result. Of all reagents, 233 (1.1%) were called active. 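Light values are raw, unnormalised plate reads; the ratio scores behind the reporter calls were not deposited.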 Reagents against one gene are numbered here. A plus sign joins genes that one reagent is predicted to hit. No sequences are given here. The record does not give: the amount of reagent, the time to read-out, the dose of the treatment.

- Test: 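Genome-wide hunt for genes that control Wingless pathway activity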 (primary screen)
- Cells: Drosophila clone 8 imaginal disc epithelial cells
- Reagent: long dsRNA against Drosophila genes
- Challenge: pathway stimulated by co-transfected Wingless expression plasmid
- Read-out: 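Firefly luciferase from a tcf-site Wingless reporter, measured alongside co-transfected Renilla luciferase that tracks transfection; pathway stimulated by a Wingless plasmid; the firefly-to-Renilla ratio is not deposited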
- Direction: firefly reporter light: higher = more Wg reporter light, before normalisation; Renilla control light: higher = more transfected or surviving cells
- Rule for the call: 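a knock-down is a candidate when at least two out of four statistical tests show it departing from its plate mean; one test alone signals a weak candidate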
- Meaning of the calls: active = candidate regulator (raises or lowers reporter); inactive = not a candidate

| gene knocked down | dsRNA no. | firefly reporter light, replicate 1 | firefly reporter light, replicate 2 | Renilla control light, replicate 1 | Renilla control light, replicate 2 | activity call |
| --- | --- | --- | --- | --- | --- | --- |
| CG9269 | 1 | 18482 | – | 4461 | – | inactive |
| CG32829 | 1 | 27025 | – | 11749 | – | inactive |
| CG32829 | 2 | 3.46e5 | 3.88e5 | 1.26e5 | 1.58e5 | inactive |
| pnut | 1 | 10080 | – | 2629 | – | inactive |
| Polr2L | 1 | 20560 | – | 10512 | – | inactive |
| Ak2 | 1 | 1962 | 8938 | 629 | 2667 | inactive |
| CG7079 | 1 | 12876 | – | 3932 | – | inactive |
| CG30484 | 1 | 14153 | – | 9635 | – | inactive |
| CG2685 | 1 | 14425 | – | 9468 | – | inactive |
| CG33230 | 1 | 11490 | – | 3541 | – | inactive |
| CG2267 | 1 | 5078 | – | 2176 | – | inactive |
| CG14424 | 1 | 11821 | – | 11589 | – | inactive |
| CG8490 | 1 | 11121 | – | 1693 | – | inactive |
| Coq7 + shf | 1 | 33848 | – | 11356 | – | inactive |
| CG31279 | 1 | 3654 | – | 1453 | – | inactive |
| CG30184 | 1 | 7.24e5 | 7.47e5 | 3.24e5 | 3.52e5 | inactive |
| CAH13 | 1 | 2314 | 6091 | 576 | 2516 | inactive |
| CG14036 | 1 | 2550 | 7801 | 774 | 2316 | inactive |
| CG8260 | 1 | 16284 | – | 9021 | – | inactive |
| CG10748 | 1 | 7884 | – | 2882 | – | inactive |
| nom | 1 | 14544 | – | 3323 | – | inactive |
| tok | 1 | 2372 | 4640 | 1152 | 1893 | inactive |
| CG11583 | 1 | 9143 | – | 3212 | – | inactive |
| Abi | 1 | 7339 | – | 1884 | – | inactive |
| CG13771 | 1 | 1508 | 4921 | 944 | 2464 | inactive |
| tub | 1 | 9552 | – | 3904 | – | inactive |
| tub | 2 | 6.39e5 | 6.61e5 | 2.02e5 | 2.53e5 | inactive |
| CG34253 + lncRNA:CR32194 | 1 | 2908 | – | 1548 | – | inactive |
| Csgalnact | 1 | 1603 | 6569 | 624 | 2432 | inactive |
| CG13239 | 1 | 9797 | – | 3803 | – | inactive |
| CG13946 | 1 | 2001 | 7589 | 1162 | 2981 | inactive |
| CG4101 | 1 | 5831 | – | 2953 | – | inactive |
| MP1 | 1 | 11080 | 7.89e5 | 4710 | 3.97e5 | inactive |
| CG7953 | 1 | 9776 | – | 3169 | – | inactive |
| CG11449 | 1 | 16106 | – | 3975 | – | inactive |
| nemy | 1 | 20688 | – | 17265 | – | inactive |
| nemy | 2 | 21373 | – | 7360 | – | inactive |
| CG7991 | 1 | 4865 | – | 2709 | – | inactive |
| CG13713 | 1 | 1210 | 8708 | 760 | 3451 | inactive |
| Mbs | 1 | 2597 | – | 928 | – | inactive |
| Mbs | 2 | 6013 | – | 2354 | – | inactive |
| Mbs | 3 | 10153 | 9.19e5 | 5163 | 5.45e5 | inactive |
| Ac78C | 1 | 3444 | – | 1482 | – | inactive |
| Ac78C | 2 | 13300 | – | 4167 | – | inactive |
| Ac78C | 3 | 14496 | – | 5201 | – | inactive |
| PpV | 1 | 20567 | – | 8873 | – | inactive |
| CG18404 | 1 | 8434 | – | 3365 | – | inactive |
| timeout | 1 | 2517 | – | 1130 | – | inactive |
| timeout | 2 | 15850 | – | 3531 | – | inactive |
| timeout | 3 | 17739 | – | 4635 | – | inactive |
| timeout | 4 | 14189 | – | 3884 | – | inactive |
| timeout | 5 | 15051 | – | 2165 | – | inactive |
| timeout | 6 | 5.36e5 | 5.12e5 | 2.16e5 | 2.21e5 | inactive |
| Cyp4ac2 | 1 | 4739 | 9756 | 1475 | 3520 | inactive |
| Jhbp4 | 1 | 15889 | – | 4433 | – | inactive |
| tutl | 1 | 3621 | 7697 | 1031 | 1847 | inactive |
| tutl | 2 | 4458 | 8103 | 1002 | 1505 | inactive |
| tutl | 3 | 2294 | 4259 | 720 | 1389 | inactive |
| CG10209 | 1 | 16567 | – | 4056 | – | inactive |
| CG5002 | 1 | 14227 | – | 5194 | – | inactive |
| Raf | 1 | 13963 | – | 11591 | – | inactive |
| CG13841 | 1 | 12269 | – | 10476 | – | inactive |
| CG34445 | 1 | 5.34e5 | 5.23e5 | 1.37e5 | 1.51e5 | inactive |
| Cpr65Ea | 1 | 1847 | 8116 | 1411 | 2818 | inactive |
| Ant2 | 1 | 3452 | 6610 | 1217 | 2232 | inactive |
| Vha36-3 | 1 | 13701 | – | 16903 | – | inactive |
| CG7889 | 1 | 2899 | 9174 | 976 | 4138 | inactive |
| EndoU | 1 | 2656 | 3362 | 2004 | 928 | inactive |
| CG7430 | 1 | 5920 | – | 2267 | – | inactive |
| nito | 1 | 6306 | – | 2252 | – | inactive |
| Akr1B | 1 | 4547 | – | 2258 | – | inactive |
| AsnS | 1 | 3075 | – | 1540 | – | inactive |
| Dcp-1 | 1 | 15875 | – | 4466 | – | inactive |

Part of the list above in another layout.
gene knocked down,dsRNA no.,"firefly reporter light, replicate 1","firefly reporter light, replicate 2","Renilla control light, replicate 1","Renilla control light, replicate 2",activity call
CG18404,1,8434,,3365,,inactive
timeout,1,2517,,1130,,inactive
timeout,2,15850,,3531,,inactive
timeout,3,17739,,4635,,inactive
timeout,4,14189,,3884,,inactive
timeout,5,15051,,2165,,inactive
timeout,6,5.36e5,5.12e5,2.16e5,2.21e5,inactive
Cyp4ac2,1,4739,9756,1475,3520,inactive
Jhbp4,1,15889,,4433,,inactive
tutl,1,3621,7697,1031,1847,inactive
